Test results reported in PMC12669790.

The chains behind the UniProt entries cited, without tags or fusion partners.
UniProt Q8IYM9: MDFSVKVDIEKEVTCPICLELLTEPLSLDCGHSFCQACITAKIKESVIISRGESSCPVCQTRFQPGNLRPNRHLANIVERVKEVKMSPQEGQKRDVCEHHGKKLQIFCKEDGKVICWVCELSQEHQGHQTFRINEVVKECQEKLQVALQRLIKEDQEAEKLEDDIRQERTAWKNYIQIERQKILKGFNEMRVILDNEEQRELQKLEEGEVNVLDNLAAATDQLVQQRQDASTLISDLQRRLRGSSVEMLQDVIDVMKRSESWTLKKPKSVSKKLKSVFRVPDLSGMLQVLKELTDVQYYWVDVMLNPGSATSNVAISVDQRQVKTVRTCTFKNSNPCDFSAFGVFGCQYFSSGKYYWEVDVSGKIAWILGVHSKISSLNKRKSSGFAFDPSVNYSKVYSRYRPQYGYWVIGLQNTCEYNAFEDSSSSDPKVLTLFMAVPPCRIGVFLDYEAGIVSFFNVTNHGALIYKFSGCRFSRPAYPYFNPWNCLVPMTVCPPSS
UniProt Q14258: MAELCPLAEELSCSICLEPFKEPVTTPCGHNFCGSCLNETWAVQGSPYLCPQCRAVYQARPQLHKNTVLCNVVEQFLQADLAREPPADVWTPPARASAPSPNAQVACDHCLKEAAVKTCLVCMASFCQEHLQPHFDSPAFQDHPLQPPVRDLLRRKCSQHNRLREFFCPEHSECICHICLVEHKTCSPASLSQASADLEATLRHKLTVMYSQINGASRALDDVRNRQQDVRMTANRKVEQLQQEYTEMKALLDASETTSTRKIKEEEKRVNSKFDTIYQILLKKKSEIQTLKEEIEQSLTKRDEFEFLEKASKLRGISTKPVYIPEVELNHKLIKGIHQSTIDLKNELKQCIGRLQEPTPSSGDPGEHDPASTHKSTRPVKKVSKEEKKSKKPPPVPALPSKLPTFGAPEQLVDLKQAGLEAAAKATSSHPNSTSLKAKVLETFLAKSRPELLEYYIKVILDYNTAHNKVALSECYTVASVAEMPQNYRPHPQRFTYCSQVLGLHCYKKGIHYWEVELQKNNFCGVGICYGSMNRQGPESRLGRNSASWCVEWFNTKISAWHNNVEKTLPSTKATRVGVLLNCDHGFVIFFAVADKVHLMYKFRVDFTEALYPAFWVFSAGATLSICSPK
UniProt Q13263: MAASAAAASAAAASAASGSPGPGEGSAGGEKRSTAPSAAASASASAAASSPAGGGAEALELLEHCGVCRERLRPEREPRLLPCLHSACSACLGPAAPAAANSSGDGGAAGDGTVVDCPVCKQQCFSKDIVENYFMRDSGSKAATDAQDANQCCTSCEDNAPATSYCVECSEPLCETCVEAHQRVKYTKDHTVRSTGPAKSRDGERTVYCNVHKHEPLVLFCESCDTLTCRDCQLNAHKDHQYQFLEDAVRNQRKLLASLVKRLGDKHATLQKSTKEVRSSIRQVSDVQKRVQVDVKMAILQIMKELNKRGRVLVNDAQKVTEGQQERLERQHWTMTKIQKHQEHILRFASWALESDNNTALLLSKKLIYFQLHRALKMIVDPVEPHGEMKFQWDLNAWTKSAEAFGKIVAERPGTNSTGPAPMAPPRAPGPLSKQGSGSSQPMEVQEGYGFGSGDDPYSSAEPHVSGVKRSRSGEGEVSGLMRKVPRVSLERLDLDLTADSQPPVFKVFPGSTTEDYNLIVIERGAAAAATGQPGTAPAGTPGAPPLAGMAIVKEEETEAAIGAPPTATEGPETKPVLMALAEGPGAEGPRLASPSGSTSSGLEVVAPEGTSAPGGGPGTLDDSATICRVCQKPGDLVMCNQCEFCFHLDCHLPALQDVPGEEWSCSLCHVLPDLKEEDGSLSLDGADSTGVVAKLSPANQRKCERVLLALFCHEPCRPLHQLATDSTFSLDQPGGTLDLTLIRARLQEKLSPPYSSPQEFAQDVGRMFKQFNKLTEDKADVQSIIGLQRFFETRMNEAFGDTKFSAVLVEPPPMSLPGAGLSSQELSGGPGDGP

The substances below were run against T1, ETS proto-oncogene 1 (ETS1) (human (endogenous in HUVEC)) (UniProt P14921) (assay: affinity purification with mass spectrometry; supernatant of HUVEC lysate incubated with antibody against ETS1 (#14069, Cell Signaling Technology) overnight at 4 °C, magnetic beads overnight at 4 °C, washed, LC-MS/MS (Q-Exactive)).
T1 sequence: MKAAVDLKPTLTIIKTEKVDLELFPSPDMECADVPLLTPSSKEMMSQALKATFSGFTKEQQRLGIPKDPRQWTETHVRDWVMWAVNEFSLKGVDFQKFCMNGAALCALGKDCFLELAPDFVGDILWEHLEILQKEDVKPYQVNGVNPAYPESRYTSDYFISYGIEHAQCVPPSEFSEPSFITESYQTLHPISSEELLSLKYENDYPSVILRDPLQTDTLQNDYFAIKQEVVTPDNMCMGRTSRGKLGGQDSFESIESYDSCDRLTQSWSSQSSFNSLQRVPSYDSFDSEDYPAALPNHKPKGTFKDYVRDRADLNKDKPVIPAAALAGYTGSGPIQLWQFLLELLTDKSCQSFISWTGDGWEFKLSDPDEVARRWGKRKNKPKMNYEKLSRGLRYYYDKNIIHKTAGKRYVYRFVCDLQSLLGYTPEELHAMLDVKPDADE

| binding | Substance |
| --- | --- |
| binds | TRIM22 (from UniProt Q8IYM9 1-498) |
| binds | TRIM25 (from UniProt Q14258 1-630) |
| binds | TRIM28 (from UniProt Q13263 1-835) |

Results are given in words; binding and its absence hold for the method and conditions named. In cells and extracts the contact can be indirect. A yes stands for co-enrichment or nearness to the bait. Other partners may have been found.
